Results as given in PMC10848721.

Protein sequences, listed by entry. Tags and fused reporters are not part of them. Lines headed by an entry give the natural chain unless they say otherwise; changes in a name come on top. Chains listed by the source or under a name are the forms on record and can include a tag or linker. Residues count along the entry.
endogenous TMEM55B (Q86T03-2, form named): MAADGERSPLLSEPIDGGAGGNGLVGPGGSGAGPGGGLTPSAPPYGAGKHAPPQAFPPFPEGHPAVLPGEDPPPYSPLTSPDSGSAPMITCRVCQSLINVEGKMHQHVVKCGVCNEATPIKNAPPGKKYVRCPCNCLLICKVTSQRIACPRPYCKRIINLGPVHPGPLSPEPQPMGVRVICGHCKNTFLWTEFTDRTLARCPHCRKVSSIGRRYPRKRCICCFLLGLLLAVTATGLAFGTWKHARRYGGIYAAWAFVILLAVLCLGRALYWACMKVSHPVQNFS
UniProt O43678: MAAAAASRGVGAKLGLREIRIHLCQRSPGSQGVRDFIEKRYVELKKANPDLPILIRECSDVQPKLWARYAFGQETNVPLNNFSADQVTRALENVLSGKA
UniProt P61026: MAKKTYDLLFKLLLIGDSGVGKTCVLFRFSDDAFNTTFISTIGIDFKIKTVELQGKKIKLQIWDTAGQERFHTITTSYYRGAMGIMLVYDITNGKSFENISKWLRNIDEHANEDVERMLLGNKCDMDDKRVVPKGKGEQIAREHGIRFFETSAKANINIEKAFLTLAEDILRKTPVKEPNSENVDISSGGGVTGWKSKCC
UniProt P20674, residues 42-150: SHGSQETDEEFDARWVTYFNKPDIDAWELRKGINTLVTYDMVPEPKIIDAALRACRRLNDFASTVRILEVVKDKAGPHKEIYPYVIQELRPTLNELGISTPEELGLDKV

T1: RILPL1-GFP WT (UniProt Q5EBL4)
T1 sequence: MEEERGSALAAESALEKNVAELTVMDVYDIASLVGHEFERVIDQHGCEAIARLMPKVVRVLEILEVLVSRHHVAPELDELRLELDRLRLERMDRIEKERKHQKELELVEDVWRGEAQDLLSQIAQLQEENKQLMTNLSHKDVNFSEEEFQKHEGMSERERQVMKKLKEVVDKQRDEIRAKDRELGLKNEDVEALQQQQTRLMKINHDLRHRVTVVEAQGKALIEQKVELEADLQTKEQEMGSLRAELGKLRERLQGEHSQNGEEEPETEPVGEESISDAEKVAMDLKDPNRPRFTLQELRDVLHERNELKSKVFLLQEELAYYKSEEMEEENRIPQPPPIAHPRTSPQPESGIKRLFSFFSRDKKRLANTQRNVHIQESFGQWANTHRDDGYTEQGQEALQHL

B1: Rab34 (protein, UniProt Q9BZG1 1-259)
chain: MNILAPVRRDRVLAELPQCLRKEAALHGHKDFHPRVTCACQEHRTGTVGFKISKVIVVGDLSVGKTCLINRFCKDTFDKNYKATIGVDFEMERFEVLGIPFSLQLWDTAGQERFKCIASTYYRGAQAIIIVFNLNDVASLEHTKQWLADALKENDPSSVLLFLVGSKKDLSTPAQYALMEKDALQVAQEMKAEYWAVSSLTGENVREFFFRVAALTFEANVLAELEKSGARRIGDVVRINSDDSNLYLTASKKKPTCCP

target: T1, RILPL1-GFP WT; test: affinity purification with mass spectrometry; GFP IPs from HEK293 cells transiently transfected with RILPL1-GFP WT or RILPL1-GFP [R293A], LRRK2[Y1699C] and HA-Rab8A[Q67L]; TMT label-based MS, WT compared with R293A

binding | Molecule
binds | endogenous TMEM55B (from UniProt Q86T03-2 1-284)
binds | NDUFA2 (from UniProt O43678 1-99)
binds | Rab10 (from UniProt P61026 1-200)
binds | COX5A (from UniProt P20674 42-150)
binds | B1

Results are given in words; binding and its absence hold for the method and conditions named. In cells and extracts the contact can be indirect. Here binding means that the protein was enriched with, or labelled near, the bait; the list need not be complete. Sequences can lack the tags named with a protein.
